No constants are given. Whether binding was seen depends on the method and setting. Some binding calls cover weakened binding; strength is not graded here.
Columns and labels:
[1] = molecular target: mouse DLL3 on overexpressing cells (plasmid pCMV3-mDLL3, MG58052-UT) (mouse) (UniProt O88516); assay: flow cytometry on cells overexpressing mouse DLL3, APC goat anti-human IgG, MFI [left panel]
[2] = molecular target: mouse DLL3 on overexpressing cells (plasmid pCMV3-mDLL3, MG58052-UT) (mouse) (UniProt O88516); assay: flow cytometry on cells overexpressing mouse DLL3
[3] = molecular target: recombinant DLL3 protein (purchased from ACRO, DL3-H5255) (human) (UniProt Q9NYJ7); assay: ELISA, plate-coated human DLL3 protein
[4] = molecular target: recombinant DLL3 protein (purchased from ACRO, DL3-H5255) (human) (UniProt Q9NYJ7); assay: ELISA on plate-coated human DLL3 protein (1 µg/ml, method of Example 3-1), OD 450 nm [right panel]
[5] = molecular target: recombinant DLL3 protein (purchased from ACRO, DL3-H5255) (human) (UniProt Q9NYJ7); assay: ELISA on plate-coated human DLL3 protein (1 µg/ml, method of Example 3-1), OD 450 nm [left panel]
[6] = molecular target: human DLL3, His tag (acrobiosystems, DL3-H52H4) (human) (UniProt Q9NYJ7); assay: BLI (Octet 96e)
[7] = molecular target: human DLL1 (purchased from Acro, DL1-H52H8) (human) (UniProt O00548); assay: ELISA on plate-coated human DLL1 protein (1 µg/ml), HRP goat anti-human secondary, OD 450 nm [left panel]
[8] = molecular target: human DLL1 (purchased from Acro, DL1-H52H8) (human) (UniProt O00548); assay: ELISA, plate-coated hDLL1 1 µg/ml
[9] = molecular target: recombinant DLL3 protein (purchased from ACRO, DL3-H5255) (human) (UniProt Q9NYJ7); assay: ELISA on plate-coated human DLL3 protein (1 µg/ml, method of Example 3-1), OD 450 nm [left and right panel]

By UniProt entry, the sequences of proteins in these tests, tags left out. Where a name states a change or a piece, a line headed by the entry shows the natural chain unless it says otherwise. Chains listed by the source or under a name are the forms on record and can include a tag or linker. Residues count along the entry.
UniProt O88516, residues 33-592: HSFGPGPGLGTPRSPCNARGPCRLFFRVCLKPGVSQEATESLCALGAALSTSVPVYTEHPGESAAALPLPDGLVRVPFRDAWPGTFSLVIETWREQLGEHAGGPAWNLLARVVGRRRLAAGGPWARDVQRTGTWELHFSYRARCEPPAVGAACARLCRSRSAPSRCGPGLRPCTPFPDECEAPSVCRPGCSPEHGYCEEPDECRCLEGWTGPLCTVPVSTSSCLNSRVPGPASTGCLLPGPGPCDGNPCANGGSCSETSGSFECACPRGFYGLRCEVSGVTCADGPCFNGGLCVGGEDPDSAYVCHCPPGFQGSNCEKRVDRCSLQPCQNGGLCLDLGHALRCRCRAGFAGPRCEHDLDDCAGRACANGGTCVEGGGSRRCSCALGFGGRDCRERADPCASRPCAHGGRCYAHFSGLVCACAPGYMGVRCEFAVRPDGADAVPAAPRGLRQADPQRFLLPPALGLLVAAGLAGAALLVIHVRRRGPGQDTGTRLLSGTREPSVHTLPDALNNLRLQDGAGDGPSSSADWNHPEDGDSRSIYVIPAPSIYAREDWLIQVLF
UniProt Q9NYJ7: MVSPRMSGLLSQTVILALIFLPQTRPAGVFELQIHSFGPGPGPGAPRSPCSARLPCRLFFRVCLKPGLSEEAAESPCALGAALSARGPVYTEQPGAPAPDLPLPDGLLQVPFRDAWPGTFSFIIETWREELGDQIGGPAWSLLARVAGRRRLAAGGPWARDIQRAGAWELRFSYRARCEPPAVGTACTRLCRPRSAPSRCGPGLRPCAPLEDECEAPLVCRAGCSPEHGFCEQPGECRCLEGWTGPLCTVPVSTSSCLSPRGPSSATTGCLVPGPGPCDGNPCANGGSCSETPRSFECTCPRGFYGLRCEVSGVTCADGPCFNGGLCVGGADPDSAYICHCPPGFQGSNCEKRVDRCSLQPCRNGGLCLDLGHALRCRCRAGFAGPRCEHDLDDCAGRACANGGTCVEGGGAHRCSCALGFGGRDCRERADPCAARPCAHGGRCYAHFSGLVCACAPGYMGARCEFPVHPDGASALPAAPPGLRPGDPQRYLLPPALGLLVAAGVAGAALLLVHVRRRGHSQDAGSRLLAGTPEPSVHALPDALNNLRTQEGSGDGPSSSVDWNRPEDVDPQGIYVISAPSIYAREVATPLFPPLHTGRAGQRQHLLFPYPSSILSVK
human DLL3, His tag (acrobiosystems, DL3-H52H4): residues 27-492 of Q9NYJ7
recombinant DLL3 protein (purchased from ACRO, DL3-H5255): residues 27-479 of Q9NYJ7
UniProt O00548, residues 18-540: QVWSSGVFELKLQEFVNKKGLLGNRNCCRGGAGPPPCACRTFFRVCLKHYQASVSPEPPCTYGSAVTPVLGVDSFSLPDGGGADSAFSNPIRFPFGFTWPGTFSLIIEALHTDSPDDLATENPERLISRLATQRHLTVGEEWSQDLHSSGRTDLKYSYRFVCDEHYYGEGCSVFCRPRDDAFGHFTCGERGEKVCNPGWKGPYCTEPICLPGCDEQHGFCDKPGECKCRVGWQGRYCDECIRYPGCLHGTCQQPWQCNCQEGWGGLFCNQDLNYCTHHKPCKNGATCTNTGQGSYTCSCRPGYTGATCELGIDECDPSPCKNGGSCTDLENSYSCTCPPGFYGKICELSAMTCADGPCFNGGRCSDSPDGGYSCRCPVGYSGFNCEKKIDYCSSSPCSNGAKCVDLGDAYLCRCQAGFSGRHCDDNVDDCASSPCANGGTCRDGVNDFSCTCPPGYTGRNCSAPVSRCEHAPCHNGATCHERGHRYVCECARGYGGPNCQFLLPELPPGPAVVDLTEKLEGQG

| binding [1] | binding [2] | binding [3] | binding [4] | binding [5] | binding [6] | binding [7] | binding [8] | binding [9] | Binder |
| --- | --- | --- | --- | --- | --- | --- | --- | --- | --- |
| binds | binds | binds | binds |  |  |  |  |  | ch23G2 (antibody, human IgG1, kappa, V domains shown, Chimeric: murine variable regions on human IgG1 heavy and kappa light constant regions; also called chimeric antibody 23G2) VH: QVQLQQSGPELVRPGVSVKISCKGSGYTFTDYAIHWVKQSRAKSPEWIGIVSTDSGKTSFNQKFKGKATMTVDKSSTTAYMELVRLTSEDSAIYYCARNPYYDYDGYAMDYWGQGTSVTVSS VL: DIQMTQSSSYLSVSLGGRVTIICKASDHINNWLAWYQQKPGNAPRLIISGATSLETGVPSRFSGSGSGKDYTLSITSLQTEDVATYYCQQYWSIPYTFGGGTKLEIKR |
| binds | binds | binds | binds |  |  |  |  |  | ch10B1 (antibody, human IgG1, kappa, V domains shown, Chimeric: murine variable regions on human IgG1 heavy and kappa light constant regions; also called chimeric antibody 10B1) VH: DVKLVESGGGLVKPGGSLKLSCAASGFTFSNYTISWVRQTPEKRLEWVATFSSGGSYTYYSDSVKGRFTISRDNAKNTLYLQMSSLKSEDTAMYYCSRDRRSDGYYHLYAMDYWGQGTSVTVSS VL: DIQMTQTTSSLSASLGDRVTISCRASQDISHYLNWYQQKPDGTVKLLIYYTSRLHSGVPSRFSGSGSGTAYSLTISNLEQEDIATYFCQQGYTLPLTFGAGTKLELKR |
| binds | binds | binds | binds |  |  |  |  |  | ch36H10 (antibody, human IgG1, kappa, V domains shown, Chimeric: murine variable regions on human IgG1 heavy and kappa light constant regions; also called chimeric antibody 36H10) VH: EVQFQQSGPELVKPGASVKISCKASGYTFTDYNIHWVRQSQGKSLEWIGLIYPFNGGIVYNQKFKSKATLTVDNSSTSAYMELRSLSSEDSAVYFCARLNWEGYWGQGSTLIVSS VL: DIKMTQSPSSIYAFLGERVTITCKASQDINSYLSWFQQKPGKSPKTLIYRANRLVGGVPSRFSGSGSGQDYSLTISSLEYEDVGDYYCLQYAEFPYTFGGGTKLEIKR |
|  |  | binds | binds |  |  |  |  |  | ch15G2 (antibody, human IgG1, kappa, V domains shown, Chimeric: murine variable regions on human IgG1 heavy and kappa light constant regions; also called chimeric antibody 15G2) VH: EVQLQQSGPELEKPGASVRISCKASGYSFTDYNMHWVKQSNGKSLEWIGNIDPYYGGTNYNQKFEGKATLTVDKSSSTAYMQLKSLTSEDSAVYYCARGGNNYGDYWGQGTTLTVSS VL: DIQMTQSPASLAASVGETVTITCRASENIYYSLAWYQQKQGKSPQLLIFNANSLEDGVPSRFSGSGSGTQYSMKINSMQPEDTATYFCKQAYDVPWTFGGGTKLEIKR |
| binds | binds | binds |  | binds |  |  |  |  | ch1A5 (antibody, human IgG1, kappa, V domains shown, Chimeric: murine variable regions on human IgG1 heavy and kappa light constant regions, expressed in 293F cells; also called chimeric antibody 1A5) VH: EVQLQQSGPELVKPGASVKISCKTSGYTFTESAMHWVKQSHGKSLEWIGGINPNNGGISYSQKFKGKATLTVDKSSSTAYMELRSLTSEDSAVYYCGSSYYRDYFDYWGQGTTLTVSS VL: NIVMTQSPESMSMSVGERVTLSCKASENVGTYVSWYQQKPDQSPKLLIYGASNRYTGVPDRFTGSGSATHFTLTISSVQAEDLADYHCGQSYSYPLTFGAGTKLELKR |
| binds | binds | binds |  | binds |  |  |  |  | ch33F11 (antibody, human IgG1, kappa, V domains shown, Chimeric: murine variable regions on human IgG1 heavy and kappa light constant regions; also called chimeric antibody 33F11) VH: EVQLQQSGPELVKPGASVKISCKTSGYTFTENTMHWVKQSHGESLEWIGGINPRNGVTSYNQKFKGKATLTVDKSSSTAYMELRSLTSEDSAVYYCTNTYYRDYFDYWGQGTTLTVSS VL: NIVMTQSPKSMSMSVGERVTLSCKASENVGTYVSWYQQKPDQSPKLLIYGASNRYTGVPDRFTGSGSPTDFTLTISRMQAEDLAHYYCGQTYTYPLTFGAGTKLELKR |
| binds | binds | binds |  | binds | binds | binds | binds |  | ch4H7 (antibody, human IgG1, kappa, V domains shown, Chimeric: murine variable regions on human IgG1 heavy and kappa light constant regions; also called chimeric antibody 4H7) VH: EVQLQQSGAELVRPGALVKLSCKASGFNFKDYYIHWVKQRPELGLEWIGWIDPENGNAIYDPKFQDKASITADTSSNTAYLHLSSLTSEGTAVYYCASEDAYYPFAYWGQGTLVTVSA VL: DIVMSQSPSSLAVSVGEKVTMRCKSSQSLLYSSNQKNYLAWYQQKPGQSPKLLIYWASTRESGVPDRFTGSGSGTDFTLTISSVKAEDLAVYFCQQYYSYRTFGGGTKLEIKR |
| binds |  |  |  |  |  |  |  | binds | FDA027 (antibody, human IgG1, kappa, V domains shown, also called anti-DLL3 antibody FDA027) VH: QVQLVQSGAEVKKPGASVKVSCKASGYTFTNYGMNWVRQAPGQGLEWMGWINTYTGEPTYADDFKGRVTMTTDTSTSTAYMELRSLRSDDTAVYYCARIGDSSPSDYWGQGTLVTVSS VL: EIVMTQSPATLSVSPGERATLSCKASQSVSNDVVWYQQKPGQAPRLLIYYASNRYTGIPARFSGSGSGTEFTLTISSLQSEDFAVYYCQQDYTSPWTFGQGTKLEIKR |
|  |  | binds | binds |  |  |  |  |  | ch13C2 (antibody, human IgG1, kappa, V domains shown, Chimeric: murine variable regions on human IgG1 heavy and kappa light constant regions; also called chimeric antibody 13C2) VH: EVKLVESGGGLVKPGGSLKLSCAASGFAFSSYDMSWVRQTPEKRLEWVATISSGGSYTYYPDSVKGRFTISRDNGRNTLYLQMSSLRSEDTALYYCASPLLGLRFAYWGQGTLVTVSA VL: QAVVTQESALTTSPGETVTLTCRSSTGAVTTINYANWVQEKPDHLFTGLIGGTNNRAPGVPARFSGSLIGDKAALTITGAQTEDEAIYFCALYYSNHWVFGGGTKLTVLR |
|  |  | binds |  | binds |  |  |  |  | ch32E8 (antibody, human IgG1, kappa, V domains shown, Chimeric: murine variable regions on human IgG1 heavy and kappa light constant regions; also called chimeric antibody 32E8) VH: QVTLKESGPGILQPSQTLSLTCSFSGFSLSTSGMGVGWIRQPSGKGLEWLALIWWDDVKRYHPALKSRLTISKDTSSSQVFLKIASVDTADTATYYCARIAEVTGQVGLHYAMDYWGQGTSVTVSS VL: QTVLTQSPAIMSASLGERVTMTCTASSSVNSSSLHWYQQKPGSSPKLWIYTTSNLASGVPARFSGSGSGTSYSLTISSMEAEDAATYYCHQFHRSPFTFGSGTKLEIKR |
| binds | binds | binds | binds |  |  |  |  |  | ch6A2 (antibody, human IgG1, kappa, V domains shown, Chimeric: murine variable regions on human IgG1 heavy and kappa light constant regions; also called chimeric antibody 6A2) VH: EVQLQQSGPELVKPGASVKISCKASGYTFTDYNMNWVKQSQGKSLEWIGYIYPYNGGTGYNQKFKTKATLTVDNSSSTAYMEFRSLTSEDSAVYYCARSDPYYTMDYWGQGTSVTVSS VL: IIVMTQTPKFLLVSAGDRVTISCKASQSVNNDVAWYQQKPGQSPKLLIYFTSNRFTGVPDRFTGSGYGTDFTFTISSVQAEDLAVYFCQQDHNSPYTFGGGTKLEIKR |
| binds |  |  |  | binds |  |  |  |  | FDA031 (antibody, human IgG1, kappa, V domains shown, also called anti-DLL3 antibody FDA031) VH: QVQLVQSGAEVKKPGASVKVSCKASGYTFTRYWIHWIRQAPGQGLEWMGYINPTTVYTEFNQNFKDRVTMTRDTSTSTVYMELSSLRSEDTAVYYCARGGSNFFDYWGQGTTVTVSS VL: AIQLTQSPSSLSASVGDRVTITCRASENIYYNLAWYQQKPGKAPKLLIYTANSLEDGVPSRFSGSGSGTDFTLTISSLQPEDFATYFCKQAYDVPPTFGGGTKLEIKR |
| binds | binds | binds | binds |  |  |  |  |  | ch26D9 (antibody, human IgG1, kappa, V domains shown, Chimeric: murine variable regions on human IgG1 heavy and kappa light constant regions; also called chimeric antibody 26D9) VH: EVQLQQSGPELVKPGASVKMSCKASGYTFTTYVMHWVKQKPGQGLEWIGYINPYNDDTNYNEKFKGKATLTSDKSSSTAYMELSSLTSEDSAVYYCARWGLTGTGDYYAMDYWGQGTSVTVSS VL: DIQMTQSPASLSASVGETVTITCRASGNVHNYLAWYQQKQGRSPQVLVYNAKTLADGVPSRFSGSGSGTQYSLKINSLLPEDFGSYYCQHFWTTPWTFGGGTTLEIKR |
| binds | binds | binds | binds |  |  |  |  |  | ch19C7 (antibody, human IgG1, kappa, V domains shown, Chimeric: murine variable regions on human IgG1 heavy and kappa light constant regions; also called chimeric antibody 19C7) VH: EVQLQQSGPELVRPGASVRMSCKASGYTFTYYVMHWVKQKPGLGLEWIGYINPYNDGTEYNEKFKGKATLTSDKSSSTAFMELSSLTSEDSAVYYCARWLLREYAMDYWGQGTSVTVSS VL: DIQMTQSPASLSASVGETVTITCRASDNIHNYLAWYQQKQGKSPQLLVYNAKTLADGVPSRFSGSGSGTQYSLKINSLQPEDFGSYYCQHFWSTPWTFGGGTKLEIKR |

Source: patent publication US20250114467A1 (SHANGHAI FUDAN ZHANGJIANG BIO PHARMACEUTICAL, published 2025)
